Some of the results follow.
biological target: OsWRKY34 (Oryza sativa, UniProt Q0JBA9 1-250); experiment: protein-binding microarray (RPBM); PBS, 2% BSA, 51.3 ng/ul salmon testes DNA, 50 uM zinc acetate, 200 nM TF, 25 C, 1 h; high values mean tight binding; settings: protein: recombinant; tags: N-terminal polyhistidine and DsRed monomer fusion (pET32a); label: CyDye5-dUTP incorporated in the synthesized complementary strand; 3' TTTTT single-stranded linker to array surface; dsDNA, one strand shown
Summary of the method: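 Ni–NTA purification followed expression in E. coli BL21-CodonPlus of transcription factors fused N-terminally to a polyhistidine tag and DsRed. At 200 nM in PBS with 2% BSA, salmon testes DNA and 50 µM zinc acetate, the protein was incubated for 1 h at 25 °C with a custom Agilent array that had been primer-extended with Cy5-dUTP and blocked with 2% BSA. After washing, the array was read on an Axon 4000B scanner. The binding signal is per-feature fluorescence intensity in arbitrary units.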

Amino acid sequences for entries named in this document (tags omitted).
UniProt Q0JBA9, entry or part of it: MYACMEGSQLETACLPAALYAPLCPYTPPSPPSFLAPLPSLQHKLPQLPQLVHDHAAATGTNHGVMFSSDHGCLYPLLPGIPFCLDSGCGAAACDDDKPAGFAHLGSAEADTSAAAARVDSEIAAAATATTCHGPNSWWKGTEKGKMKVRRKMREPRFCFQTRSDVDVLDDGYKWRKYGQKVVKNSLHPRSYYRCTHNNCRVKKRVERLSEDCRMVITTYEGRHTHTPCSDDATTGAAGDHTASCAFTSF

Row | Sequence | binding signal
1 | ATTATAGTATTAGTGTGGTGTGGTGTGTTGTTTATGCAATCGGAGTCACCTAGTGCAG | 8790 fluorescence intensity (a.u.)
2 | AATTGTATATCTTTTTGAAACCAAGAGTGCCAACTTTTCACGGAGTCACCTAGTGCAG | 8610 fluorescence intensity (a.u.)
3 | TCATTGCTTTACTTGCATTTACTATTTATTTTTTTCTAAGCGGAGTCACCTAGTGCAG | 8990 fluorescence intensity (a.u.)
4 | CGGGATCCGTTTTGTAGCAGTCCTCTTAATTAATTTACCGCGGAGTCACCTAGTGCAG | 9390 fluorescence intensity (a.u.)
5 | CTTTCATTAACCGTAATTCGTCATTTACATTGTGATCACACGGAGTCACCTAGTGCAG | 9030 fluorescence intensity (a.u.)
6 | ACCATCCGCTTCTTCTCCAAACGCCCACGCGCTTCTCACCCGGAGTCACCTAGTGCAG | 8960 fluorescence intensity (a.u.)
7 | ACCTCAGCCACACTCCCAGGCTTCGCCTTCCGGAAGCTTCCGGAGTCACCTAGTGCAG | 8540 fluorescence intensity (a.u.)
8 | GTGGGAGGCCGCAACAGCCAATCTCGCCTCTTTGCGCTTTCGGAGTCACCTAGTGCAG | 8130 fluorescence intensity (a.u.)
9 | ATTTTATTTTAAAAATATTTTAAACTCCTTTTTGATTTTACGGAGTCACCTAGTGCAG | 8430 fluorescence intensity (a.u.)
10 | TGGGAATGGATCAGTAGACTGTTGGTGATGCTCAATTTACCGGAGTCACCTAGTGCAG | 8230 fluorescence intensity (a.u.)
11 | AACTTTTCCATCACATCGTTCTAATTTCTTCAAACTTCCACGGAGTCACCTAGTGCAG | 9580 fluorescence intensity (a.u.)
12 | CAATCCGGACCATATAAGTGTTTTCCTTTTTTAATTCTTTCGGAGTCACCTAGTGCAG | 11300 fluorescence intensity (a.u.)
13 | GTTTAAGGACCGCTGATGCATTTTACTCTTTTATTTTCAACGGAGTCACCTAGTGCAG | 9190 fluorescence intensity (a.u.)
14 | AAATGGGTGGTTGTCTCTCCCTCTCCTCCTTTCTTCTCCACGGAGTCACCTAGTGCAG | 8780 fluorescence intensity (a.u.)
15 | TAGATTAGTTTCACCGGTTCATCCACCTTAAGAATTTTTTCGGAGTCACCTAGTGCAG | 8170 fluorescence intensity (a.u.)
16 | CGAACGGTCAAACATATTTAAAAAAGTCAACGACGTCAAACGGAGTCACCTAGTGCAG | 8400 fluorescence intensity (a.u.)
17 | TTGCCGTACGTTTTACTCGCAAGTGCAGTGCTTCTAGAACCGGAGTCACCTAGTGCAG | 8710 fluorescence intensity (a.u.)
18 | CTATTCTCTGCGCCACATCATCGTATGAGTCTACACGGTACGGAGTCACCTAGTGCAG | 11700 fluorescence intensity (a.u.)
19 | TTTTTTTTCGGGGAGTAGTTTCTCTGAATTCATCGCTAGACGGAGTCACCTAGTGCAG | 10100 fluorescence intensity (a.u.)
20 | ACGGCCGTCCGTCTGCACGAAGCATTTCCATCCACCACACCGGAGTCACCTAGTGCAG | 10100 fluorescence intensity (a.u.)
21 | ATCTGGGTTCTTTTTTTTTCTTTTTTTGCCGGGTTTTTTTCGGAGTCACCTAGTGCAG | 14800 fluorescence intensity (a.u.)
22 | TCTCGGTTTTCTCTTTAGCGTTCTTGCTGGGATTTGATGCCGGAGTCACCTAGTGCAG | 8950 fluorescence intensity (a.u.)
23 | TTCCGGCCCCTTTGCATTTGTGCCTTGGCGGGCGCAGGGGCGGAGTCACCTAGTGCAG | 8380 fluorescence intensity (a.u.)

Individual results from the results shown.
For binding signal, CTTTCATTAACCGTAATTCGTCATTTACATTGTGATCACACGGAGTCACCTAGTGCAG shows 9030 fluorescence intensity (a.u.)
For binding signal, ACGGCCGTCCGTCTGCACGAAGCATTTCCATCCACCACACCGGAGTCACCTAGTGCAG shows 10100 fluorescence intensity (a.u.)

Reference: publication PMC7819943, “Rice protein-binding microarrays: a tool to detect cis-acting elements near promoter regions in rice”
